# The list shows a part of the results.
# B1: EUL D1A first (Oryza sativa) (protein)
# chain: MFGFGHHHNQAPAAPSDPNQIFKIFCRANENYCLTVRDSAVVLAPVNPKDEHQHWFKDMRFSTKVKDGEGMPAFALVNKATGLAVKHSLGQSHPVKLVPFNPEYEDASVLWTESKDVGKGFRCIRMVNNTRLNLDAFHGDKDHGGVRDGTTVVLWEWCKGDNQSWKILPWGPEAHSSSPGAATILEQKLISEEDLNSAVDHHHHHH
# Tests used:
# Assay in all cases: glycan array binding signal (z-score within array); higher = stronger binding
# Conditions in all cases: glycan notation: IUPAC condensed, linker removed
# [1] = target: Gal(b1-3)GlcNAc(b1-2)Man(a1-3)[Gal(b1-3)GlcNAc(b1-2)Man(a1-6)]Man(b1-4)GlcNAc(b1-4)[Fuc(a1-6)]GlcNAc
# Outline: (§1)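 Glycan array binding is given as a within-array Z-score, which can be read as non-binding when negative. The arrays, 3228 of them, came from the Consortium for Functional Glycomics database and were retained only where the protein sequence was available. Z-scores were averaged across arrays of the same protein sequence at different concentrations or buffers and across linkers.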
# [2] = target: Gal(b1-3)GlcNAc(b1-2)Man(a1-3)[GlcNAc(b1-4)][Gal(b1-3)GlcNAc(b1-2)Man(a1-6)]Man(b1-4)GlcNAc(b1-4)GlcNAc
# Outline: as §1
# [3] = target: Gal(b1-3)GlcNAc(b1-2)[Gal(b1-3)GlcNAc(b1-6)]Man(a1-6)[Gal(b1-3)GlcNAc(b1-2)Man(a1-3)]Man(b1-4)GlcNAc(b1-4)GlcNAc
# Outline: as §1
# [4] = target: Gal(b1-3)GlcNAc(b1-3)Gal(b1-3)GlcNAc
# Outline: as §1
# [5] = target: Gal(b1-3)GlcNAc(b1-3)Gal(b1-4)Glc
# Outline: as §1
# [6] = target: Gal(b1-3)GlcNAc(b1-3)Gal(b1-4)GlcNAc
# Outline: as §1
# [7] = target: Gal(b1-3)GlcNAc(b1-3)Gal(b1-4)GlcNAc(b1-2)Man(a1-3)[Gal(b1-3)GlcNAc(b1-3)Gal(b1-4)GlcNAc(b1-2)Man(a1-6)]Man(b1-4)GlcNAc(b1-4)GlcNAc
# Outline: as §1
# [8] = target: Gal(b1-3)GlcNAc(b1-3)Gal(b1-4)GlcNAc(b1-2)[Gal(b1-3)GlcNAc(b1-3)Gal(b1-4)GlcNAc(b1-6)]Man(a1-6)[Gal(b1-3)GlcNAc(b1-3)Gal(b1-4)GlcNAc(b1-2)Man(a1-3)]Man(b1-4)GlcNAc(b1-4)[Fuc(a1-6)]GlcNAc
# Outline: as §1
# [9] = target: Gal(b1-3)GlcNAc(b1-3)Gal(b1-4)GlcNAc(b1-3)Gal(b1-4)GlcNAc(b1-2)[Gal(b1-3)GlcNAc(b1-3)Gal(b1-4)GlcNAc(b1-3)Gal(b1-4)GlcNAc(b1-6)]Man(a1-6)[Gal(b1-3)GlcNAc(b1-3)Gal(b1-4)GlcNAc(b1-3)Gal(b1-4)GlcNAc(b1-2)Man(a1-3)]Man(b1-4)GlcNAc(b1-4)[Fuc(a1-6)]GlcNAc
# Outline: as §1
# [10] = target: Gal(b1-3)GlcNAc(b1-3)Gal(b1-4)GlcNAc(b1-6)[Gal(b1-3)GlcNAc(b1-3)]Gal(b1-4)Glc
# Outline: as §1
# [11] = target: Gal(b1-3)GlcNAc(b1-3)Gal(b1-4)[Fuc(a1-3)]GlcNAc
# Outline: as §1
# [12] = target: Gal(b1-3)GlcNAc(b1-3)Gal(b1-4)[Fuc(a1-3)]GlcNAc(b1-6)[Gal(b1-3)GlcNAc(b1-3)]Gal(b1-4)Glc
# Outline: as §1
# [13] = target: Gal(b1-3)GlcNAc(b1-3)GalNAc
# Outline: as §1
# [14] = target: Gal(b1-3)GlcNAc(b1-6)Gal(b1-4)GlcNAc
# Outline: as §1
# [15] = target: Gal(b1-3)GlcNAc(b1-6)GalNAc
# Outline: as §1
# [16] = target: Gal(b1-3)GlcNAc(b1-6)[Gal(b1-3)]GalNAc
# Outline: as §1
# Gal(b1-3)GlcNAc6S = target: Gal(b1-3)GlcNAc6S
# Outline: as §1
# [17] = target: Gal(b1-3)[Fuc(a1-4)]GlcNAc
# Outline: as §1
# [18] = target: Gal(b1-3)[Fuc(a1-4)]GlcNAc(b1-2)Man
# Outline: as §1
# [19] = target: Gal(b1-3)[Fuc(a1-4)]GlcNAc(b1-2)Man(a1-3)[Gal(b1-3)[Fuc(a1-4)]GlcNAc(b1-2)Man(a1-6)]Man(b1-4)GlcNAc(b1-4)[Fuc(a1-6)]GlcNAc
# Outline: as §1
# [20] = target: Gal(b1-3)[Fuc(a1-4)]GlcNAc(b1-3)Gal(b1-3)[Fuc(a1-4)]GlcNAc
# Outline: as §1
# [21] = target: Gal(b1-3)[Fuc(a1-4)]GlcNAc(b1-3)Gal(b1-4)[Fuc(a1-3)]GlcNAc
# Outline: as §1
# [22] = target: Gal(b1-3)[Fuc(a1-4)]GlcNAc(b1-6)GalNAc
# Outline: as §1
# [23] = target: Gal(b1-3)[GlcNAc(b1-6)]GalNAc
# Outline: as §1
# [24] = target: Gal(b1-3)[Neu5Ac(a2-6)]GalNAc
# Outline: as §1
# [25] = target: Gal(b1-3)[Neu5Ac(a2-6)]GlcNAc(b1-4)Gal(b1-4)Glc
# Outline: as §1
# [26] = target: Gal(b1-3)[Neu5Ac(b2-6)]GalNAc
# Outline: as §1
# Gal(b1-4)Gal = target: Gal(b1-4)Gal
# Outline: as §1
# [27] = target: Gal(b1-4)GalNAc(a1-3)[Fuc(a1-2)]Gal(b1-4)GlcNAc
# Outline: as §1
# [28] = target: Gal(b1-4)GalNAc(b1-3)[Fuc(a1-2)]Gal(b1-4)GlcNAc
# Outline: as §1
# Gal(b1-4)Glc = target: Gal(b1-4)Glc
# Outline: as §1
# Gal(b1-4)Glc6S = target: Gal(b1-4)Glc6S
# Outline: as §1
# Gal(b1-4)GlcNAc = target: Gal(b1-4)GlcNAc
# Outline: as §1
# [29] = target: Gal(b1-4)GlcNAc(a1-6)Gal(b1-4)GlcNAc
# Outline: as §1
# Gal(b1-4)GlcNAc(b1-2)Man = target: Gal(b1-4)GlcNAc(b1-2)Man
# Outline: as §1
# [30] = target: Gal(b1-4)GlcNAc(b1-2)Man(a1-3)Man(b1-4)GlcNAc(b1-4)GlcNAc
# Outline: as §1
# [31] = target: Gal(b1-4)GlcNAc(b1-2)Man(a1-3)[Gal(b1-4)GlcNAc(b1-2)Man(a1-6)]Man(b1-4)GlcNAc(b1-4)GlcNAc
# Outline: as §1
# [32] = target: Gal(b1-4)GlcNAc(b1-2)Man(a1-3)[Gal(b1-4)GlcNAc(b1-2)Man(a1-6)]Man(b1-4)GlcNAc(b1-4)[Fuc(a1-6)]GlcNAc
# Outline: as §1
# [33] = target: Gal(b1-4)GlcNAc(b1-2)Man(a1-3)[Gal(b1-4)GlcNAc(b1-2)Man(a1-6)][Gal(b1-4)GlcNAc(b1-4)]Man(b1-4)GlcNAc(b1-4)[Fuc(a1-6)]GlcNAc
# Outline: as §1
# [34] = target: Gal(b1-4)GlcNAc(b1-2)Man(a1-3)[Gal(b1-4)GlcNAc(b1-2)Man(a1-6)][GlcNAc(b1-4)]Man(b1-4)GlcNAc(b1-4)[Fuc(a1-6)]GlcNAc
# Outline: as §1
# [35] = target: Gal(b1-4)GlcNAc(b1-2)Man(a1-3)[GlcNAc(b1-2)Man(a1-6)]Man(b1-4)GlcNAc(b1-4)GlcNAc
# Outline: as §1
# [36] = target: Gal(b1-4)GlcNAc(b1-2)Man(a1-3)[GlcNAc(b1-4)][Gal(b1-4)GlcNAc(b1-2)Man(a1-6)]Man(b1-4)GlcNAc(b1-4)GlcNAc
# Outline: as §1
# [37] = target: Gal(b1-4)GlcNAc(b1-2)Man(a1-3)[Man(a1-6)]Man(b1-4)GlcNAc(b1-4)GlcNAc
# Outline: as §1
# [38] = target: Gal(b1-4)GlcNAc(b1-2)Man(a1-6)Man(b1-4)GlcNAc(b1-4)GlcNAc
# Outline: as §1
# [39] = target: Gal(b1-4)GlcNAc(b1-2)Man(a1-6)[GlcNAc(b1-2)Man(a1-3)]Man(b1-4)GlcNAc(b1-4)GlcNAc
# Outline: as §1
binder,measurement,setting,value
B1,glycan array binding signal (z-score),[1],-0.837
same,glycan array binding signal (z-score),[2],0.089
same,glycan array binding signal (z-score),[3],-1.13
same,glycan array binding signal (z-score),[4],0.515
same,glycan array binding signal (z-score),[5],0.047
same,glycan array binding signal (z-score),[6],-1.19
same,glycan array binding signal (z-score),[7],0.06
same,glycan array binding signal (z-score),[8],1.23
same,glycan array binding signal (z-score),[9],1.3
same,glycan array binding signal (z-score),[10],-1.46
same,glycan array binding signal (z-score),[11],0.553
same,glycan array binding signal (z-score),[12],-0.506
same,glycan array binding signal (z-score),[13],-1.07
same,glycan array binding signal (z-score),[14],-1.12
same,glycan array binding signal (z-score),[15],0.023
same,glycan array binding signal (z-score),[16],-0.218
same,glycan array binding signal (z-score),Gal(b1-3)GlcNAc6S,-0.208
same,glycan array binding signal (z-score),[17],1.38
same,glycan array binding signal (z-score),[18],-0.092
same,glycan array binding signal (z-score),[19],-0.463
same,glycan array binding signal (z-score),[20],-0.846
same,glycan array binding signal (z-score),[21],0.485
same,glycan array binding signal (z-score),[22],0.926
same,glycan array binding signal (z-score),[23],-1.03
same,glycan array binding signal (z-score),[24],-0.969
same,glycan array binding signal (z-score),[25],-0.531
same,glycan array binding signal (z-score),[26],-1.15
same,glycan array binding signal (z-score),Gal(b1-4)Gal,1.09
same,glycan array binding signal (z-score),[27],-0.731
same,glycan array binding signal (z-score),[28],-0.264
same,glycan array binding signal (z-score),Gal(b1-4)Glc,-1.08
same,glycan array binding signal (z-score),Gal(b1-4)Glc6S,-0.635
same,glycan array binding signal (z-score),Gal(b1-4)GlcNAc,0.066
same,glycan array binding signal (z-score),[29],1.94
same,glycan array binding signal (z-score),Gal(b1-4)GlcNAc(b1-2)Man,-0.758
same,glycan array binding signal (z-score),[30],0.1
same,glycan array binding signal (z-score),[31],3.09
same,glycan array binding signal (z-score),[32],-1.23
same,glycan array binding signal (z-score),[33],-0.792
same,glycan array binding signal (z-score),[34],-1.23
same,glycan array binding signal (z-score),[35],-0.832
same,glycan array binding signal (z-score),[36],-0.801
same,glycan array binding signal (z-score),[37],2.04
same,glycan array binding signal (z-score),[38],3.03
same,glycan array binding signal (z-score),[39],1.22

# Some of the entries above in a different format.
binder	measurement	setting	value
B1	glycan array binding signal (z-score)	[5]	0.047
same	glycan array binding signal (z-score)	[6]	-1.19
same	glycan array binding signal (z-score)	[7]	0.06

# From the supplement of paper PMC8728848
